Residue numbers refer to the chain shown, from its start. No constants are given. Whether binding was seen depends on the method and setting. Binding calls can cover weak binding; strength is not graded here.
B1: E18 (designed binder)
chain: EVVAATPTSLLISWRHPHFPTRYYRITYGETGGNSPVQEFTVPLQPPTATISGLKPGVDYTITGYAVTVERNGRELNTPISINYRT
B2: E29 (designed binder)
chain: B1 chain with E75V, N77M
B3: E19 (designed binder)
chain: B1 chain with E75H, N77M

Target: Flk-1/EpoR chimera on cells (pmKE2) (mouse; human)
Test: flow cytometry on CHO-Flk, His6-tagged protein, anti-His6 and labeled anti-mouse antibody

binding | Binder
binds | B1
binds | B2
binds | B3

From patent publication US20080220049A1
